Experimental data reported in publication PMC7755605.
No constants are given. Whether binding was seen depends on the method and setting. In cells and extracts the contact can be indirect. Binding can be weak; no strength is given. Sequences can lack the tags named with a protein.

Columns and labels:
[1] = target: T1, GST-tagged RING domain deficient TRAF6 with coiled-coil domain and TRAF-C domain (289-530aa) (mouse) (UniProt P70196); assay: pull-down; 5 ug GST fusion protein on glutathione sepharose 4B beads incubated with lysate of HEK cells transfected with Np65-GFP, 1 h at 4 C, 500 ul RIPA lysis buffer; immunoblot; only the target purified
T1 sequence: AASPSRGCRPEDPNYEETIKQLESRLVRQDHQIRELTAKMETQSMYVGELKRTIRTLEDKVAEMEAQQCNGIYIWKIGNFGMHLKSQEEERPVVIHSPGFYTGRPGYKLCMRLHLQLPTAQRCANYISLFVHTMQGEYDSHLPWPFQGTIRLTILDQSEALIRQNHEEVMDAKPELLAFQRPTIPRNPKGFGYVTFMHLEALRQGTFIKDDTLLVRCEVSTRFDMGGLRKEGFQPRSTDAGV

[2] = target: T2, N-terminally GST-tagged TRAF6 (mouse) (UniProt P70196); assay: as above
T2 sequence: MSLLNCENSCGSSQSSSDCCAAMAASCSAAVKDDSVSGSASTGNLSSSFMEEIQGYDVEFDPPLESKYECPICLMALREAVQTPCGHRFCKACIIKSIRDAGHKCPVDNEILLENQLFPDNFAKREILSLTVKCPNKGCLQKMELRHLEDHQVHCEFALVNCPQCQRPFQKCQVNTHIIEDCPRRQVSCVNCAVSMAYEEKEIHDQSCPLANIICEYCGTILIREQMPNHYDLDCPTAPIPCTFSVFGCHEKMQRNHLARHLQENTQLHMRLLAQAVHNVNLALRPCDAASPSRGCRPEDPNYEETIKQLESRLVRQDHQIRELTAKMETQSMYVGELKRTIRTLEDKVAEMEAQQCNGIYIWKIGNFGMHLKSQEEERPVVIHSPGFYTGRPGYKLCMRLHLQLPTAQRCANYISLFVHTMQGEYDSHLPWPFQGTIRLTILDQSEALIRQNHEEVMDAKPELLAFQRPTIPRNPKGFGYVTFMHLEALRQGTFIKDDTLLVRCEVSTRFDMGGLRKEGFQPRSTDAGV

With “GFP-tagged neuroplastin 65 with the DDEP insert (from UniProt P97546-2)” as the substance, how does the binding [1] read?
Its binding is “binds”.

And the binding [2]?
The binding was “binds”.
